Laboratory results taken from publication PMC4716839.
Results are given in words; binding and its absence hold for the method and conditions named. Sequences can lack the tags named with a protein.

Protein sequences, listed by entry. Tags and fused reporters are not part of them. Residues count along the entry.
UniProt Q8VEE4, residues 191-431: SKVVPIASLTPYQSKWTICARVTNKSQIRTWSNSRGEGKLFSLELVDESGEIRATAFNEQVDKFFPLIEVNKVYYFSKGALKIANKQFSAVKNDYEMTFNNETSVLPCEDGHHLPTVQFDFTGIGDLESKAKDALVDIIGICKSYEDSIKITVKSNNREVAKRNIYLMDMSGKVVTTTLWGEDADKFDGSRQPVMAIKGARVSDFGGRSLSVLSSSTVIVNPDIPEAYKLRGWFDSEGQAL

Biological target: T1, GST-tagged mouse Dna2 OB (residues 21–122) (mouse) (UniProt Q6ZQJ5)
T1 sequence: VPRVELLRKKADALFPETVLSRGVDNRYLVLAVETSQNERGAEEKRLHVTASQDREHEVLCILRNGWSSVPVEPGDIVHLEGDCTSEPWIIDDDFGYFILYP
Assay: pull-down; GST pull-down as a1 with (dT)24 or (dT)8 ssDNA added; concentrations shown in the figure; bound Rpa70 quantified relative to the lane without DNA; both purified

- binding: no binding (condition: with (dT)8 ssDNA)
Substance: mouse Rpa70AB (residues 191–431) (from UniProt Q8VEE4 191-431) (domain or fragment)
